This test relates to B6C3F1 mice, Lewis lung carcinoma iv, survival T/C. Description: NCI In Vivo Anticancer Drug Screen. Data for tumor model Lewis Lung Carcinoma (intravenous) in B6C3F1 mice. To be noted: T/C endpoint: median survival time, higher T/C = longer survival. Put shortly: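 T/C ratio derived from survival of compound-treated versus vehicle-treated mice bearing transplantable tumors.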

The mark [1] stands for this setting: dose: 12.5 mg/kg/injection, schedule: Q01DX009 (ip), vehicle: water.
Setting [2] is: dose: 50.0 mg/kg/injection, schedule: Q01DX009 (ip), vehicle: water.
Setting [3] is: dose: 25.0 mg/kg/injection, schedule: Q01DX009 (ip), vehicle: saline.
The mark [4] stands for this setting: dose: 50.0 mg/kg/injection, schedule: Q01DX009 (ip), vehicle: saline.
[5] abbreviates: dose: 400.0 mg/kg/injection, schedule: Q01DX001 (ip), vehicle: saline.

The list is a part of this screen's results and no random one: it gathers tests that were run many times, whatever their T/C, doses with no T/C, and many T/C values between a quarter and a half above the control. Further doses and runs are listed elsewhere. T/C is the treated group as % of the vehicle group. Some entries give survivors of the animals treated and no T/C: the source files T/C as zero there, which appears to mark a toxic dose or a test without result, not a measured value. Some survivor counts are full or nearly so, which does not show that the dose was tolerated: survival well below the control is almost never listed, so the zero probably covers shortened survival too. Counts of survivors are from the toxicity check (mostly the fifth day) where no day follows; animals may have died later. Schedules are NCI's codes, taken here to give the interval after Q, in days (D) or hours (H), and the number of doses after X. Some entries were tested several times; the values are given in rising order. Where survival is the endpoint, this PubChem deposit counts one and a half times the control or more as active, and values a quarter to a half above the control carry no call in these data; other NCI protocols may use other cut-offs. Some T/C values are followed by the survivors on the day toxicity was checked, most often the fifth; without a count, all were alive then.

In the case of `[N-]=[N+]=CC(=O)CCC(=O)C=[N+]=[N-]`, the survivor count (dose: 1.56 mg/kg/injection, schedule: Q01DX009 (ip), vehicle: DMSO) is 10 of 10; the survivor count (dose: 3.12 mg/kg/injection, schedule: Q01DX009 (ip), vehicle: DMSO) is 9 of 10; the survivor count (dose: 6.25 mg/kg/injection, schedule: Q01DX009 (ip), vehicle: DMSO) is 8 of 10; the survivor count (dose: 12.0 mg/kg/injection, schedule: Q01DX009 (ip), vehicle: DMSO) is 9 of 10; the survivor count (dose: 12.5 mg/kg/injection, schedule: Q01DX009 (ip), vehicle: DMSO) was 8 of 10 and 10 of 10; the survivor count (dose: 24.0 mg/kg/injection, schedule: Q01DX009 (ip), vehicle: DMSO) was 9 of 10. Moreover, the survivor count was 10 of 10 (dose: 25.0 mg/kg/injection, schedule: Q01DX009 (ip), vehicle: DMSO); 8 of 10 (dose: 48.0 mg/kg/injection, schedule: Q01DX009 (ip), vehicle: DMSO); 10 of 10 (dose: 50.0 mg/kg/injection, schedule: Q01DX009 (ip), vehicle: DMSO); 10 of 10 (dose: 100.0 mg/kg/injection, schedule: Q01DX009 (ip), vehicle: DMSO); 10 of 10 (dose: 200.0 mg/kg/injection, schedule: Q01DX009 (ip), vehicle: DMSO); 4 of 10 and 8 of 10 (dose: 400.0 mg/kg/injection, schedule: Q01DX009 (ip), vehicle: DMSO).
Turning to `O=NN(CCCl)C(=O)NCCO`, the T/C is 129, 134, 143 % of control [9 of 10 alive] (dose: 1.56 mg/kg/injection, schedule: Q01DX009 (ip), vehicle: water); 128 % of control (dose: 6.25 mg/kg/injection, schedule: Q01DX009 (ip), vehicle: water); 141 % of control under setting [1]. Also, the survivor count by setting is: under setting [1], 9 of 10; (dose: 25.0 mg/kg/injection, schedule: Q01DX009 (ip), vehicle: water) 7 of 10 and 10 of 10; under setting [2], 9 of 10.
For `O=c1n[n+]([O-])ccn1C1OC(CO)C(O)C1O` (stereo unspecified), the T/C (dose: 200.0 mg/kg/injection, schedule: Q01DX009 (ip), vehicle: saline) is 127 % of control. Besides, under “dose: 600.0 mg/kg/injection, schedule: Q01DX009 (ip), vehicle: saline”, the survivor count is 5 of 10.
As for `C=C1N(C)c2ccccc2C1(C)C`, the survivor count (dose: 12.5 mg/kg/injection, schedule: Q01DX009 (ip), vehicle: saline with Tween-80) was 10 of 10; the survivor count (dose: 25.0 mg/kg/injection, schedule: Q01DX009 (ip), vehicle: saline with Tween-80) is on record as 6 of 10; the survivor count (dose: 50.0 mg/kg/injection, schedule: Q01DX009 (ip), vehicle: saline with Tween-80) is on record as 8 of 10; the survivor count (dose: 100.0 mg/kg/injection, schedule: Q01DX009 (ip), vehicle: saline with Tween-80) was 5 of 10 and 8 of 10; the survivor count (dose: 200.0 mg/kg/injection, schedule: Q01DX009 (ip), vehicle: saline with Tween-80) is reported as 0 of 10; the survivor count (dose: 400.0 mg/kg/injection, schedule: Q01DX009 (ip), vehicle: saline with Tween-80) was 0 of 10.
In the case of `COc1cc2c(c(OC)c1OC)-c1ccc(OC)c(=O)cc1[C@@H](NC(C)=O)CC2`, the survivor count is listed as 2 of 10 (dose: 1.56 mg/kg/injection, schedule: Q01DX009 (ip), vehicle: saline); 2 of 10 (dose: 1.57 mg/kg/injection, schedule: Q01DX009 (ip), vehicle: saline); 0 of 10 (dose: 3.13 mg/kg/injection, schedule: Q01DX009 (ip), vehicle: saline); 0 of 10 (dose: 6.25 mg/kg/injection, schedule: Q01DX009 (ip), vehicle: saline); 0 of 10 (dose: 12.5 mg/kg/injection, schedule: Q01DX009 (ip), vehicle: saline); 0 of 10 under setting [3]. For the same compound, under setting [4], the survivor count is reported as 0 of 10.
Take `CN(C)CCN1C(=O)c2cccc3cc(N)cc(c23)C1=O`: the T/C (dose: 16.0 mg/kg/injection, schedule: Q01DX009 (ip), vehicle: saline with Tween-80) was 138 % of control. For the same compound, the survivor count (dose: 32.0 mg/kg/injection, schedule: Q01DX009 (ip), vehicle: saline with Tween-80) is listed as 9 of 10.
As for `NC(Cc1ccc(N(CCCl)CCCl)cc1)C(=O)O` (stereo unspecified), for the setting “dose: 8.0 mg/kg/injection, schedule: Q01DX009 (ip), vehicle: saline with Tween-80”, the T/C is 129 % of control.
`O=C1OC(=O)[C@H]2[C@@H]1[C@H]1C=C[C@@H]2OC1=O`: the survivor count (dose: 400.0 mg/kg/injection, schedule: Q01DX009 (ip), vehicle: suspension in saline) is on record as 6 of 10.
`Cc1cc(NCCCCCCCCNc2cc(C)nc3cc(N(C)C)ccc23)c2ccc(N(C)C)cc2n1`: the survivor count by setting is: (dose: 12.5 mg/kg/injection, schedule: Q01DX009 (ip), vehicle: distilled water + Tween-80 + alcohol) 9 of 10; (dose: 50.0 mg/kg/injection, schedule: Q01DX009 (ip), vehicle: distilled water + Tween-80 + alcohol) 3 of 10 and 4 of 10; (dose: 100.0 mg/kg/injection, schedule: Q01DX009 (ip), vehicle: distilled water + Tween-80 + alcohol) 0 of 10.
Turning to `O=C(O)CSc1c(Cl)c(=O)oc2ccc(Cl)cc12`, for the setting “dose: 200.0 mg/kg/injection, schedule: Q01DX009 (ip), vehicle: Klucel (hydroxypropylcellulose) (HPC)”, the survivor count is 7 of 10.
For `C[C@H](N)C(=O)N[C@@H]1[C@H]2C(=C(O)C[C@@H](O)[C@@H]2O)C(=O)O[C@]1(C)C(Cl)Cl`, the survivor count by setting is: (dose: 3.0 mg/kg/injection, schedule: Q01DX009 (ip), vehicle: Klucel (hydroxypropylcellulose) (HPC)) 10 of 10; (dose: 6.0 mg/kg/injection, schedule: Q01DX009 (ip), vehicle: Klucel (hydroxypropylcellulose) (HPC)) 1 of 10.
Consider `COc1ccc(-c2csc(=[N+]3CCCCC3)s2)cc1`, for which, under setting [2], the survivor count is recorded as 0 of 10.
Consider `CCCCC(=O)OCC(=O)[C@]1(O)Cc2c(O)c3c(c(O)c2[C@@H](OC2CC(NC(=O)C(F)(F)F)C(O)C(C)O2)C1)C(=O)c1c(OC)cccc1C3=O` (stereo partly specified), for which the T/C is 137 % of control (dose: 64.0 mg/kg/injection, schedule: Q01DX009 (ip), vehicle: saline with Tween-80) and 136 % of control (dose: 256.0 mg/kg/injection, schedule: Q01DX009 (ip), vehicle: Klucel (hydroxypropylcellulose) (HPC)). Moreover, the survivor count reads like this: (dose: 128.0 mg/kg/injection, schedule: Q01DX009 (ip), vehicle: saline with Tween-80) 10 of 10; (dose: 256.0 mg/kg/injection, schedule: Q01DX009 (ip), vehicle: saline with Tween-80) 10 of 10.
`BrCCC1(CCBr)CCCCC1`: the survivor count (dose: 800.0 mg/kg/injection, schedule: Q01DX009 (ip), vehicle: water) is reported as 6 of 10.
`O=P1(N(CCCl)CCCl)NCCCO1` (stereo unspecified): the T/C was 149 % of control under setting [3]; 133 % of control (dose: 50.0 mg/kg/injection, schedule: Q01DX001 (ip), vehicle: saline); 125 % of control under setting [5]. For the same compound, the survivor count under setting [4] was 10 of 10; the survivor count (dose: 100.0 mg/kg/injection, schedule: Q01DX009 (ip), vehicle: saline) was 9 of 10 and 10 of 10; the survivor count under setting [5] is listed as 10 of 10.
As for `O=NN(CCCl)C(=O)NC1[C@H](O)CCC[C@@H]1O` (stereo partly specified), the survivor count (dose: 20.0 mg/kg/injection, schedule: Q01DX009 (ip), vehicle: saline) is recorded as 10 of 10 on day 9.
